{"sequences": {"note": "Protein sequences, listed by entry. Tags and fused reporters are not part of them.", "UniProt P51807": "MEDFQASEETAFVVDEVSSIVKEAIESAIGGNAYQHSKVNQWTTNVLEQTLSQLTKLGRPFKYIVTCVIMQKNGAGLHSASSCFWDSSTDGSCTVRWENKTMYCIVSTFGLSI"}, "source": "paper PMC5765474", "biological_target": "MAP6d1 protein (rat)", "assay": "co-IP; MAP6d1 immunoprecipitated, Tctex1 detected (Fig. S2); cells and constructs not shown", "note": "These are yes or no findings as the source states them, for the method shown. In cells and extracts the contact can be indirect. Some entries that bind do so weakly or less than the wild type."}
{"substance": "Tctex1 as used in the MAP6d1 immunoprecipitation (Fig. S2) (from UniProt P51807 1-113)", "values": [{"measurement": "binding", "value": "binds"}]}
